Measurements: patent publication US20250186646A1, “Use of Volatile Compositions to Limit or Eliminate Perception of Fecal Malodour” (Firmenich SA, priority 2016, published 2025)
Some results were stated once for a whole list of compounds, not compound by compound.

System: fecal reconstitution
Assay: Olfactometer sensory measurement of residual fecal odour (Examples 2 and 3)
Assay type: in vivo
Details: gas phase concentration of 3.4 μg/l air, combined with fecal reconstitution

Substance: (+−)-(3E)-3-methyl-4-(2,6,6-trimethyl-2-cyclohexen-1-yl)-3-buten-2-one (A) + (+−)-(1E)-1-(2,6,6-trimethyl-2-cyclohexen-1-yl)-1-penten-3-one (B) [Isoraldeine 70P]
- residual fecal odour (fecal score left): < 50%
